# Test results reported in the supplement of paper PMC8728848.
# Some of the results follow.
# Legend:
# Test in all cases: glycan array binding signal (z-score within array); higher = stronger binding
# Details in all cases: glycan notation: IUPAC condensed, linker removed
# [1] = target: Fuc(a1-2)Gal
# Procedure, shortened: (§1)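 The binding signal is a Z-score computed within each array. Data were drawn from 3228 arrays in the Consortium for Functional Glycomics database, restricted to those with a known protein sequence. Scores were averaged over arrays of the same protein sequence at different concentrations or buffers, and over linkers, and negative values can be taken as non-binding.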
# [2] = target: Fuc(a1-2)Gal(b1-3)GalNAc
# Procedure, shortened: as §1
# [3] = target: Fuc(a1-2)Gal(b1-3)GalNAc(a1-3)[Fuc(a1-2)]Gal(b1-4)Glc
# Procedure, shortened: as §1
# [4] = target: Fuc(a1-2)Gal(b1-3)GalNAc(a1-3)[Fuc(a1-2)]Gal(b1-4)GlcNAc
# Procedure, shortened: as §1
# [5] = target: Fuc(a1-2)Gal(b1-3)GalNAc(b1-3)Gal
# Procedure, shortened: as §1
# [6] = target: Fuc(a1-2)Gal(b1-3)GalNAc(b1-3)Gal(a1-4)Gal(b1-4)Glc
# Procedure, shortened: as §1
# [7] = target: Fuc(a1-2)Gal(b1-3)GalNAc(b1-4)[Neu5Ac(a2-3)]Gal(b1-4)Glc
# Procedure, shortened: as §1
# [8] = target: Fuc(a1-2)Gal(b1-3)GlcNAc
# Procedure, shortened: as §1
# [9] = target: Fuc(a1-2)Gal(b1-3)GlcNAc(b1-2)Man(a1-3)[Fuc(a1-2)Gal(b1-3)GlcNAc(b1-2)Man(a1-6)]Man(b1-4)GlcNAc(b1-4)GlcNAc
# Procedure, shortened: as §1
# [10] = target: Fuc(a1-2)Gal(b1-3)GlcNAc(b1-2)Man(a1-3)[Fuc(a1-2)Gal(b1-3)GlcNAc(b1-2)Man(a1-6)]Man(b1-4)GlcNAc(b1-4)[Fuc(a1-6)]GlcNAc
# Procedure, shortened: as §1
# [11] = target: Fuc(a1-2)Gal(b1-3)GlcNAc(b1-3)Gal(b1-4)Glc
# Procedure, shortened: as §1
# [12] = target: Fuc(a1-2)Gal(b1-3)GlcNAc(b1-3)GalNAc
# Procedure, shortened: as §1
# [13] = target: Fuc(a1-2)Gal(b1-3)GlcNAc(b1-3)[Fuc(a1-2)Gal(b1-3)GlcNAc(b1-6)]GalNAc
# Procedure, shortened: as §1
# [14] = target: Fuc(a1-2)Gal(b1-3)GlcNAc(b1-3)[Gal(b1-4)GlcNAc(b1-6)]Gal(b1-4)Glc
# Procedure, shortened: as §1
# [15] = target: Fuc(a1-2)Gal(b1-3)GlcNAc(b1-3)[Neu5Ac(a2-6)Gal(b1-4)GlcNAc(b1-6)]Gal(b1-4)Glc
# Procedure, shortened: as §1
# [16] = target: Fuc(a1-2)Gal(b1-3)GlcNAc6S
# Procedure, shortened: as §1
# [17] = target: Fuc(a1-2)Gal(b1-3)[Fuc(a1-4)]GlcNAc
# Procedure, shortened: as §1
# [18] = target: Fuc(a1-2)Gal(b1-3)[Fuc(a1-4)]GlcNAc(b1-2)Man(a1-3)[Fuc(a1-2)Gal(b1-3)[Fuc(a1-4)]GlcNAc(b1-2)Man(a1-3)]Man(b1-4)GlcNAc(b1-4)GlcNAc
# Procedure, shortened: as §1
# [19] = target: Fuc(a1-2)Gal(b1-3)[Fuc(a1-4)]GlcNAc(b1-2)Man(a1-3)[Fuc(a1-2)Gal(b1-3)[Fuc(a1-4)]GlcNAc(b1-2)Man(a1-6)]Man(b1-4)GlcNAc(b1-4)[Fuc(a1-6)]GlcNAc(b1-4)[Fuc(a1-6)]GlcNAc
# Procedure, shortened: as §1
# [20] = target: Fuc(a1-2)Gal(b1-3)[Fuc(a1-4)]GlcNAc(b1-3)[Fuc(a1-3)[Gal(b1-4)]GlcNAc(b1-6)]Gal(b1-4)Glc
# Procedure, shortened: as §1
# [21] = target: Fuc(a1-2)Gal(b1-3)[Fuc(a1-4)]GlcNAc(b1-3)[Gal(b1-4)GlcNAc(b1-6)]Gal(b1-4)Glc
# Procedure, shortened: as §1
# [22] = target: Fuc(a1-2)Gal(b1-4)Glc
# Procedure, shortened: as §1
# [23] = target: Fuc(a1-2)Gal(b1-4)Glc6S
# Procedure, shortened: as §1
# [24] = target: Fuc(a1-2)Gal(b1-4)GlcNAc
# Procedure, shortened: as §1
# [25] = target: Fuc(a1-2)Gal(b1-4)GlcNAc(b1-2)Man
# Procedure, shortened: as §1
# [26] = target: Fuc(a1-2)Gal(b1-4)GlcNAc(b1-2)Man(a1-3)[Fuc(a1-2)Gal(b1-4)GlcNAc(b1-2)Man(a1-6)]Man(b1-4)GlcNAc(b1-4)GlcNAc
# Procedure, shortened: as §1
# [27] = target: Fuc(a1-2)Gal(b1-4)GlcNAc(b1-2)Man(a1-3)[Fuc(a1-2)Gal(b1-4)GlcNAc(b1-2)Man(a1-6)]Man(b1-4)GlcNAc(b1-4)[Fuc(a1-6)]GlcNAc
# Procedure, shortened: as §1
# [28] = target: Fuc(a1-2)Gal(b1-4)GlcNAc(b1-2)[Fuc(a1-2)Gal(b1-4)GlcNAc(b1-4)]Man(a1-3)[Fuc(a1-2)Gal(b1-4)GlcNAc(b1-2)Man(a1-6)]Man(b1-4)GlcNAc(b1-4)GlcNAc
# Procedure, shortened: as §1
# [29] = target: Fuc(a1-2)Gal(b1-4)GlcNAc(b1-3)Gal(b1-4)GlcNAc
# Procedure, shortened: as §1
# [30] = target: Fuc(a1-2)Gal(b1-4)GlcNAc(b1-3)Gal(b1-4)GlcNAc(b1-2)Man(a1-3)[Fuc(a1-2)Gal(b1-4)GlcNAc(b1-3)Gal(b1-4)GlcNAc(b1-2)Man(a1-6)]Man(b1-4)GlcNAc(b1-4)GlcNAc
# Procedure, shortened: as §1
binder,measurement,setting,value
PX14375A-pdi-503-28-503 (Parabacteroides distasonis) (protein) PLGSPEAGDISEERQAFLRLTAVYSVMKDFRYTWSMQCFGDVLSNDATYSGSSNDAQTFTLLENYQYQADHTEILNKYRYSYQCINKANLFIRDMEMADDALFSKYDKEQMIGEAKFIRAYTYFELVKTFGGVPCYTGVLDLDHERLGRASVEEIYSVIEQDLNDAVSVLPKKSEVANYESSYAGRITKGAAIAMQTRIYLYEKKYDEVKKAFEKFQNECGGEYSLVAPEDYTWQFSLDGEHCSSSILEVNMYNSSTQSSYNVNNGNRHVLMSMPRNMTIGFGCAQPTQALADAYDAEGDVIRKKTTLLSTEEAIEIETAAKGDVAPVTDDRTGWYNRKLYLAPGQREENRGNNQPTNLRLIRLAEVYLNYAEACYFSGDIANAQKYLNEVRSHVNLAPKNHTGSQLFEDIMNERHLEFGMEGFRFFDVVRVGWGEKVFNGTKKAEFGAKTPFSAGAEVLPIPQTEIDISDGLITN,glycan array binding signal (z-score),[1],-0.635
same,glycan array binding signal (z-score),[2],-0.01
same,glycan array binding signal (z-score),[3],-0.032
same,glycan array binding signal (z-score),[4],-1
same,glycan array binding signal (z-score),[5],-0.431
same,glycan array binding signal (z-score),[6],-0.023
same,glycan array binding signal (z-score),[7],-0.262
same,glycan array binding signal (z-score),[8],-0.222
same,glycan array binding signal (z-score),[9],0.53
same,glycan array binding signal (z-score),[10],0.448
same,glycan array binding signal (z-score),[11],-0.604
same,glycan array binding signal (z-score),[12],-0.306
same,glycan array binding signal (z-score),[13],-0.393
same,glycan array binding signal (z-score),[14],-0.394
same,glycan array binding signal (z-score),[15],0.897
same,glycan array binding signal (z-score),[16],0.876
same,glycan array binding signal (z-score),[17],-0.033
same,glycan array binding signal (z-score),[18],0.809
same,glycan array binding signal (z-score),[19],-0.045
same,glycan array binding signal (z-score),[20],-0.52
same,glycan array binding signal (z-score),[21],-0.41
same,glycan array binding signal (z-score),[22],-0.423
same,glycan array binding signal (z-score),[23],-0.582
same,glycan array binding signal (z-score),[24],-0.177
same,glycan array binding signal (z-score),[25],-0.052
same,glycan array binding signal (z-score),[26],-0.105
same,glycan array binding signal (z-score),[27],0.481
same,glycan array binding signal (z-score),[28],1.43
same,glycan array binding signal (z-score),[29],-0.787
same,glycan array binding signal (z-score),[30],0.132

# Given with tabs: part of the list above.
binder	measurement	setting	value
PX14375A-pdi-503-28-503 (Parabacteroides distasonis) (protein) PLGSPEAGDISEERQAFLRLTAVYSVMKDFRYTWSMQCFGDVLSNDATYSGSSNDAQTFTLLENYQYQADHTEILNKYRYSYQCINKANLFIRDMEMADDALFSKYDKEQMIGEAKFIRAYTYFELVKTFGGVPCYTGVLDLDHERLGRASVEEIYSVIEQDLNDAVSVLPKKSEVANYESSYAGRITKGAAIAMQTRIYLYEKKYDEVKKAFEKFQNECGGEYSLVAPEDYTWQFSLDGEHCSSSILEVNMYNSSTQSSYNVNNGNRHVLMSMPRNMTIGFGCAQPTQALADAYDAEGDVIRKKTTLLSTEEAIEIETAAKGDVAPVTDDRTGWYNRKLYLAPGQREENRGNNQPTNLRLIRLAEVYLNYAEACYFSGDIANAQKYLNEVRSHVNLAPKNHTGSQLFEDIMNERHLEFGMEGFRFFDVVRVGWGEKVFNGTKKAEFGAKTPFSAGAEVLPIPQTEIDISDGLITN	glycan array binding signal (z-score)	[28]	1.43
same	glycan array binding signal (z-score)	[29]	-0.787
